Assay results taken from patent US9517222B2, “Method for the treatment of senile dementia of the Alzheimer's type” (Phenomenome Discoveries Inc., priority 2007, dated 2016).
Where no unit stands, none is given here, and values compare only within one read-out.

Key:
[1] = Serum ethanolamine phospholipid levels in human cohorts (dementia severity, post-mortem pathology, age) by flow-injection MS/MS
[2] = Serum ethanolamine phospholipid ratios to PtdEt 16:0/18:0 (M01) in human cohorts
[3] = serum, females, post mortem SDAT
[4] = serum, females, post mortem control

CCCCC/C=C\C/C=C\C/C=C\C/C=C\CCCCCC(=O)OC(COCCCCCCCCCCCCCCCC)COP(=O)(O)OCCN (centres unmarked) [Metabolite M08, Plasmanyl 16:0/22:4]
Ratio of serum levels ([1]; AD, All to CN, Male): 0.759 | Ratio of serum levels ([1]; ADAS 5-19 to CN, Male): 0.806 | Ratio of serum levels ([1]; ADAS 20-39 to 5-19, Male): 0.936 | Ratio of serum levels ([1]; ADAS 20-39 to CN, Male): 0.755 | Ratio of serum levels ([1]; ADAS 40-70 to 5-19, Male): 0.780 | Ratio of serum levels ([1]; ADAS 40-70 to 20-39, Male): 0.833 | Ratio of serum levels ([1]; ADAS 40-70 to CN, Male): 0.629 | Serum level, Mean ([1]; Cognitive Normal, Female): 0.006 | Average serum level, Mean ([1]; Cognitive Normal, Male): 0.007 | Serum level, Mean ([1]; Post Mortem Ctl, Male): 0.003 | Serum level, Mean ([1]; Post Mortem SDAT Male): 0.002 | Ratio of serum levels ([1]; Post mortem SDAT vs Control, Male): 0.410 | Serum level, Mean ([1]; SDAT, ADAS 5-19, Female): 0.005 | Average serum level, Mean ([1]; SDAT, ADAS 5-19, Male): 0.006 | Serum level, Mean ([1]; SDAT, ADAS 20-39, Female): 0.006 | Average serum level, Mean ([1]; SDAT, ADAS 20-39, Male): 0.005 | Serum level, Mean ([1]; SDAT, ADAS 40-70, Female): 0.005 | Average serum level, Mean ([1]; SDAT, ADAS 40-70, Male): 0.004 | Serum level, Mean ([1]; SDAT_all, Female): 0.005 | Average serum level, Mean ([1]; SDAT_all, Male): 0.005 | Ratio, ADAS 5-19 to CN, Female ([1]; serum level ratio, females, ADAS 5-19 vs CN): 0.849 | Ratio, ADAS 20-39 to 5-19, Female ([1]; serum level ratio, females, ADAS 20-39 vs ADAS 5-19): 1.046 | Ratio, ADAS 20-39 to CN, Female ([1]; serum level ratio, females, ADAS 20-39 vs CN): 0.889 | Ratio, ADAS 40-70 to 5-19, Female ([1]; serum level ratio, females, ADAS 40-70 vs ADAS 5-19): 0.850 | Ratio, ADAS 40-70 to 20-39, Female ([1]; serum level ratio, females, ADAS 40-70 vs ADAS 20-39): 0.812 | Ratio, ADAS 40-70 to CN, Female ([1]; serum level ratio, females, ADAS 40-70 vs CN): 0.722 | Ratio, 50-59 vs. 40-49, Female ([1]; serum level ratio, females, age 50-59 vs 40-49): 0.721 | Ratio, 60-69 vs. 40-49, Female ([1]; serum level ratio, females, age 60-69 vs 40-49): 0.569 | Ratio, 70+ vs. 40-49, Female ([1]; serum level ratio, females, age 70+ vs 40-49): 0.640 | Ratio, AD, All to CN, Female ([1]; serum level ratio, females, all AD vs cognitively normal): 0.821 | Ratio, Autopsy AD vs. Control, Female ([1]; serum level ratio, females, autopsy AD vs control): 0.684 | Ratio, 50-59 vs. 40-49, Male ([1]; serum level ratio, males, age 50-59 vs 40-49): 1.031 | Ratio, 60-69 vs. 40-49, Male ([1]; serum level ratio, males, age 60-69 vs 40-49): 1.014 | Ratio, 70+ vs. 40-49, Male ([1]; serum level ratio, males, age 70+ vs 40-49): 0.907 | Mean serum level, Age Ctl, 30-39, Female ([1]; serum, females, age 30-39): 0.008 | Mean serum level, Age Ctl, 40-49, Female ([1]; serum, females, age 40-49): 0.010 | Mean serum level, Age Ctl, 50-59, Female ([1]; serum, females, age 50-59): 0.007 | Mean serum level, Age Ctl, 60-69, Female ([1]; serum, females, age 60-69): 0.006 | Mean serum level, Age Ctl, 70+, Female ([1]; serum, females, age 70+): 0.006 | Mean serum level, Post Mortem SDAT, Female [1, 3]: 0.001 | Mean serum level, Post Mortem Ctl, Female [1, 4]: 0.003 | Mean serum level, Age Ctl, 30-39, Male ([1]; serum, males, age 30-39): 0.010 | Mean serum level, Age Ctl, 40-49, Male ([1]; serum, males, age 40-49): 0.007 | Mean serum level, Age Ctl, 50-59, Male ([1]; serum, males, age 50-59): 0.007 | Mean serum level, Age Ctl, 60-69, Male ([1]; serum, males, age 60-69): 0.007 | Mean serum level, Age Ctl, 70+, Male ([1]; serum, males, age 70+): 0.006 | Ratio of ethanolamine phospholipid ratios to M01 between cohorts ([2]; AD, All to CN, Male): 0.713 | Ratio of ethanolamine phospholipid ratios to M01 between cohorts ([2]; ADAS 5-19 to CN, Male): 0.747 | Ratio of ethanolamine phospholipid ratios to M01 between cohorts ([2]; ADAS 20-39 to CN, Male): 0.727 | Ratio of ethanolamine phospholipid ratios to M01 between cohorts ([2]; ADAS 40-70 to CN, Male): 0.602 | Average serum ethanolamine phospholipid ratio to M01, Mean ([2]; Cognitive Normal, Male, serum): 0.062 | Average serum ethanolamine phospholipid ratio to M01, Mean ([2]; SDAT, ADAS 5-19, Male, serum): 0.047 | Average serum ethanolamine phospholipid ratio to M01, Mean ([2]; SDAT, ADAS 20-39, Male, serum): 0.045 | Average serum ethanolamine phospholipid ratio to M01, Mean ([2]; SDAT, ADAS 40-70, Male, serum): 0.038 | Average serum ethanolamine phospholipid ratio to M01, Mean ([2]; SDAT_all, Male, serum): 0.044 | Ethanolamine Phospholipid Ratio to M01, Mean, Age Ctl, 30-39, Female ([2]; human serum, females aged 30-39): 0.079 | Ethanolamine Phospholipid Ratio to M01, Mean, Age Ctl, 40-49, Female ([2]; human serum, females aged 40-49): 0.089 | Ethanolamine Phospholipid Ratio to M01, Mean, Age Ctl, 50-59, Female ([2]; human serum, females aged 50-59): 0.070 | Ratio of Ethanolamine Phospholipid Ratio to M01, 50-59 vs. 40-49, Female ([2]; human serum, females aged 50-59 vs. females aged 40-49): 0.783 | Ethanolamine Phospholipid Ratio to M01, Mean, Age Ctl, 60-69, Female ([2]; human serum, females aged 60-69): 0.047 | Ratio of Ethanolamine Phospholipid Ratio to M01, 60-69 vs. 40-49, Female ([2]; human serum, females aged 60-69 vs. females aged 40-49): 0.533 | Ethanolamine Phospholipid Ratio to M01, Mean, Age Ctl, 70+_Female ([2]; human serum, females aged 70+): 0.052 | Ratio of Ethanolamine Phospholipid Ratio to M01, 70+ vs. 40-49, Female ([2]; human serum, females aged 70+ vs. females aged 40-49): 0.583 | Ratio of Ethanolamine Phospholipid Ratio to M01, 50-59 vs. 40-49, Male ([2]; human serum, males aged 50-59 vs. males aged 40-49): 1.053 | Ratio of Ethanolamine Phospholipid Ratio to M01, 60-69 vs. 40-49, Male ([2]; human serum, males aged 60-69 vs. males aged 40-49): 0.847 | Ratio of Ethanolamine Phospholipid Ratio to M01, 70+ vs. 40-49, Male ([2]; human serum, males aged 70+ vs. males aged 40-49): 0.765 | Ratio of ethanolamine phospholipid ratio to M01, ADAS 5-19 to CN, Female ([2]; serum, females, ADAS 5-19 vs cognitive normal): 0.934 | Ratio of ethanolamine phospholipid ratio to M01, ADAS 20-39 to 5-19, Female ([2]; serum, females, ADAS 20-39 vs ADAS 5-19): 1.010 | Ratio of ethanolamine phospholipid ratio to M01, ADAS 20-39 to CN, Female ([2]; serum, females, ADAS 20-39 vs cognitive normal): 0.943 | Ratio of ethanolamine phospholipid ratio to M01, ADAS 40-70 to 5-19, Female ([2]; serum, females, ADAS 40-70 vs ADAS 5-19): 0.787 | Ratio of ethanolamine phospholipid ratio to M01, ADAS 40-70 to 20-39, Female ([2]; serum, females, ADAS 40-70 vs ADAS 20-39): 0.780 | Ratio of ethanolamine phospholipid ratio to M01, ADAS 40-70 to CN, Female ([2]; serum, females, ADAS 40-70 vs cognitive normal): 0.735 | Ethanolamine phospholipid ratio to M01, Mean, SDAT, ADAS 5-19, Female ([2]; serum, females, SDAT ADAS 5-19): 0.050 | Ethanolamine phospholipid ratio to M01, Mean, SDAT, ADAS 20-39, Female ([2]; serum, females, SDAT ADAS 20-39): 0.051 | Ethanolamine phospholipid ratio to M01, Mean, SDAT, ADAS 40-70, Female ([2]; serum, females, SDAT ADAS 40-70): 0.039 | Ratio of ethanolamine phospholipid ratio to M01, AD, All to CN, Female ([2]; serum, females, all AD vs cognitive normal): 0.869 | Ethanolamine phospholipid ratio to M01, Mean, SDAT_all Female ([2]; serum, females, all SDAT): 0.047 | Ratio of ethanolamine phospholipid ratio to M01, Autopsy AD vs. Control, Female ([2]; serum, females, autopsy AD vs post mortem control): 0.981 | Ethanolamine phospholipid ratio to M01, Mean, Cognitive Normal, Female ([2]; serum, females, cognitive normal): 0.054 | Ethanolamine phospholipid ratio to M01, Mean, Post Mortem SDAT Female [2, 3]: 0.017 | Ethanolamine phospholipid ratio to M01, Mean, Post Mortem Ctl, Female [2, 4]: 0.017 | Ratio of ethanolamine phospholipid ratio to M01, ADAS 20-39 to 5-19, Male ([2]; serum, males, SDAT ADAS 20-39 vs ADAS 5-19): 0.973 | Ratio of ethanolamine phospholipid ratio to M01, ADAS 40-70 to 5-19, Male ([2]; serum, males, SDAT ADAS 40-70 vs ADAS 5-19): 0.806 | Ratio of ethanolamine phospholipid ratio to M01, ADAS 40-70 to 20-39, Male ([2]; serum, males, SDAT ADAS 40-70 vs ADAS 20-39): 0.828 | Ethanolamine phospholipid ratio to M01, Mean, Age Ctl, 30-39, Male ([2]; serum, males, age control 30-39): 0.079 | Ethanolamine phospholipid ratio to M01, Mean, Age Ctl, 40-49, Male ([2]; serum, males, age control 40-49): 0.064 | Ethanolamine phospholipid ratio to M01, Mean, Age Ctl, 50-59, Male ([2]; serum, males, age control 50-59): 0.067 | Ethanolamine phospholipid ratio to M01, Mean, Age Ctl, 60-69, Male ([2]; serum, males, age control 60-69): 0.054 | Ethanolamine phospholipid ratio to M01, Mean, Age Ctl, 70+_Male ([2]; serum, males, age control 70+): 0.049 | Ethanolamine phospholipid ratio to M01, Mean, Post Mortem SDAT Male ([2]; serum, males, post mortem SDAT): 0.012 | Ratio of ethanolamine phospholipid ratio to M01, SDAT vs Control (post mortem, males) ([2]; serum, males, post mortem SDAT vs post mortem control): 0.511 | Ethanolamine phospholipid ratio to M01, Mean, Post Mortem Ctl, Male ([2]; serum, males, post mortem control): 0.024
